Results are given in words; binding and its absence hold for the method and conditions named. For some of these results: In cells and extracts the contact can be indirect. Some entries that bind do so weakly or less than the wild type. For some of these results: Where a sequence is shown, tags or fusion partners need not be part of it.
Legend:
[1] = target: T1, LHFPL5 (lipoma HMGIC fusion partner-like 5) with Strep-mCerulean (mouse (Mus musculus)) (UniProt Q4KL25); test: pull-down; lysates of co-transfected HEK293 tsa201 cells bound to StrepTactin resin (Strep tag on the mCerulean-tagged partner), washed in 1 mM DDM, 20 mM Tris pH 8.0, 150 mM NaCl, eluted with 10 mM desthiobiotin; eluates analysed by mcFSEC
T1 sequence: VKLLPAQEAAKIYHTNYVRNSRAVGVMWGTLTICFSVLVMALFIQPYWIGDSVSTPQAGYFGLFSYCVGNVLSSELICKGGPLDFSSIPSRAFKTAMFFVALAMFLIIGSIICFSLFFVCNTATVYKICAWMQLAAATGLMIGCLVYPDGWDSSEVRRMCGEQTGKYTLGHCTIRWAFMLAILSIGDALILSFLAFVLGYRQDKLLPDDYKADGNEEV

Chains of the proteins cited; added tags and fusions are not shown. Lines headed by an entry give the natural chain unless they say otherwise; changes in a name come on top. A line that says so, or that is headed by a name, gives the form on record, which may keep a tag or linker.
PCDH15_(4EC) (mouse protocadherin 15, EC8 to CR) with mVenus-8xHis (Q99PJ1, form named): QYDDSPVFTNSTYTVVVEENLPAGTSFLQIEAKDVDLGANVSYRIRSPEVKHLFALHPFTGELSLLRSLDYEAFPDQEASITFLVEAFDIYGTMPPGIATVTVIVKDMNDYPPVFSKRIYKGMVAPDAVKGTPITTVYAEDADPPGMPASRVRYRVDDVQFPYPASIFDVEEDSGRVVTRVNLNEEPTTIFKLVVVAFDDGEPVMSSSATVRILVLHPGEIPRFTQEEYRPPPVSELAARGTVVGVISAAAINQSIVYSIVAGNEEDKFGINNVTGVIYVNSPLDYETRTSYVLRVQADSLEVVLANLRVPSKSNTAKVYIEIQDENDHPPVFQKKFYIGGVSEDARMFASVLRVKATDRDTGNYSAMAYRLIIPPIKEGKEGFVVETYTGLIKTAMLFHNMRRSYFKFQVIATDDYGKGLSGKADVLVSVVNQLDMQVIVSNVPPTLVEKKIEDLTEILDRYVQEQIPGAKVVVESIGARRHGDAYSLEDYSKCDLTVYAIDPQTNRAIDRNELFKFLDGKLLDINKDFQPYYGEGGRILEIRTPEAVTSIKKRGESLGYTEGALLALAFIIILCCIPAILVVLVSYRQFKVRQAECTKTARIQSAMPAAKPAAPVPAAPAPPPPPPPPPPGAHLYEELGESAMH
PCDH15_(4EC) Δ1413, Glu1373 mutated to cysteine (Q99PJ1, form named): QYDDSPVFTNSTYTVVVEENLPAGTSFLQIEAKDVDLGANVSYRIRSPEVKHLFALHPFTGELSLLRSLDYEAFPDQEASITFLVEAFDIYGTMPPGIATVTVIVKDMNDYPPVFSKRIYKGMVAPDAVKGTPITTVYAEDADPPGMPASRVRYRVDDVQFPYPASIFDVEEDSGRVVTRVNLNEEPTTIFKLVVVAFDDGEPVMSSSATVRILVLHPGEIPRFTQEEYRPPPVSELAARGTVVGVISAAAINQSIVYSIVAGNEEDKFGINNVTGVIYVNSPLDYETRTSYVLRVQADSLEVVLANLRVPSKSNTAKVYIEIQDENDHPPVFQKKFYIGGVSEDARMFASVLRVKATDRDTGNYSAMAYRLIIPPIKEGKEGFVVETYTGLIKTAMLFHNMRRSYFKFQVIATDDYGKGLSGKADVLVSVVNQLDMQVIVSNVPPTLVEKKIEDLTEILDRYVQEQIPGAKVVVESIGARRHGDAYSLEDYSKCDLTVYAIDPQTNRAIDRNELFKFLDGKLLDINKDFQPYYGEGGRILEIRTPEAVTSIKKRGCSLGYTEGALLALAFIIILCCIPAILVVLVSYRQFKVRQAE
PCDH15_(4EC) Δ1413, residue 1377 (Tyr1377) mutated to cysteine (Q99PJ1, form named): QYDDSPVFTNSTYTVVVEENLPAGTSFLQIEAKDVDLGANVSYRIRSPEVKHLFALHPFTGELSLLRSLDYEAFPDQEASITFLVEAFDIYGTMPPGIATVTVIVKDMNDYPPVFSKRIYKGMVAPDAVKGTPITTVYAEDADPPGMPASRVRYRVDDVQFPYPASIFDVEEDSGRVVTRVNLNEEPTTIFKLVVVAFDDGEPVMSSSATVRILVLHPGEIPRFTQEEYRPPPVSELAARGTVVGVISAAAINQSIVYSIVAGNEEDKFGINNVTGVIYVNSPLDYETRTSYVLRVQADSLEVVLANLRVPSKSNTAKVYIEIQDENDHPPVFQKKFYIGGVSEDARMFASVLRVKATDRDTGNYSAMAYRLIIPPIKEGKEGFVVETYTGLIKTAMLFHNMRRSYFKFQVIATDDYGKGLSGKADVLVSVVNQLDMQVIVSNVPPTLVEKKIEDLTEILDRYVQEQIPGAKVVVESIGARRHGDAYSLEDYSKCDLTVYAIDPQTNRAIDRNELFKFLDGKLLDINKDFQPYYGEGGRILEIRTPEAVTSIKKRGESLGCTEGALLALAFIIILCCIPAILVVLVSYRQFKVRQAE

[2] = target: T1, LHFPL5 (lipoma HMGIC fusion partner-like 5) with Strep-mCerulean (mouse (Mus musculus)); test: SEC; multicolor fluorescence-detection SEC (mcFSEC) of clarified lysates of co-transfected HEK293 tsa201 cells; 20 mM DDM lysis, 50 mM Tris pH 8.0, 150 mM NaCl; Superose 6 Increase 10/300 GL; mVenus and mCerulean fluorescence
[3] = target: PCDH15_(4EC) Δ1413, Glu1373 mutated to cysteine (mouse (Mus musculus)) (UniProt Q99PJ1); test: cross-linking; spontaneous disulfide formation of single-cysteine mutants of PCDH15_(4EC) Δ1413 co-expressed with LHFPL5 in HEK293 tsa201; lysates in 1% digitonin, 150 mM NaCl, 50 mM Tris pH 8.0, 1 mM CaCl2; SDS-PAGE with 40 mM N-ethylmaleimide (oxidizing) or 500 mM β-mercaptoethanol (reducing); in-gel fluorescence
[4] = target: PCDH15_(4EC) Δ1413, residue 1377 (Tyr1377) mutated to cysteine (mouse (Mus musculus)) (UniProt Q99PJ1); test: as above

PCDH15_(4EC) (mouse protocadherin 15, EC8 to CR) with mVenus-8xHis (from UniProt Q99PJ1 27-30; Q99PJ1 821-1462) (domain or fragment)
binding [1]: binds
binding [2]: binds

PCDH15_(4EC) Δ1413, Glu1373 mutated to cysteine (from UniProt Q99PJ1 27-30; Q99PJ1 821-1413) (domain or fragment)
binding [3]: binds

PCDH15_(4EC) Δ1413, residue 1377 (Tyr1377) mutated to cysteine (from UniProt Q99PJ1 27-30; Q99PJ1 821-1413) (domain or fragment)
binding [4]: binds
